Laboratory results published in the supplement of paper PMC7877785.
± gives the uncertainty stated by the source. Many of these values have a large error.

Experiment: self-splicing fitness, log relative to wild type (ln ratio); higher = more splicing; Tetrahymena group I intron in knt gene, E. coli kanamycin selection, DiMSum; sequences stand for … in CUCUCU…GGAGGGAAAAGUUAUCAGGCAUGCACCUGGUAGCUAGUCUUUAAACCAAUAGAUUGCAUCGGUUUAAAAGGCAAGACCGUCAAAUUGCGGGAAAGGGGUCAACAGCCGUUCAGUACCAAGUCUCAGGGGAAACUUUGAGAUGGCCUUGCAAAGGGUAUGGUAAUAAGCUGACGGACAUGGUCCUAACCACGCAGCCAAGUCCUAAGUCAACAGAUCUUCUGUUGAUAUGGAUGCAGUUCACAGACUAAAUGUCGGUCGGGGAAGAUGUAUUCUUCUCAUAAGAUAUAGUCGGACCUCUCCUUAAUGGGAGCUAGCGGAUGAAGUGAUGCAACACUGGAGCCGCUGGGAACUAAUUUGUAUGCGAAAGUAUAUUGAUUAGUUUUGGAGUACUCGUGGUCG
How it was run: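 The eight P1ex-region nucleotides of an intron in the knt kanamycin-resistance gene on pET-22b(+) were all randomised and the library put into E. coli BL21(DE3). Six replicate transformations were grown overnight at 37°C or 30°C on LB agar with or without 25 μg/mL kanamycin, together with 100 μg/mL carbenicillin, 50 μM IPTG and 0.2% rhamnose. Colonies were pooled and amplicon-sequenced on an Illumina HiSeq 2500. Fitness from DiMSum is the error-weighted combination of wild-type-normalised replicate fold changes, kanamycin over none.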

| Sequence | self-splicing fitness (ln) (30 °C) | self-splicing fitness (ln) (37 °C) |
| --- | --- | --- |
| UCGGAGCAAUAUUACGGGUA | -3.03 ± 0.64 | – |
| AACGAGCAAUAUUACGCCCC | – | -0.778 ± 1.4 |
| AAUCAGCAAUAUUACGCCGC | -2.49 ± 0.55 | -0.735 ± 0.54 |
| UUAUAGCAAUAUUACGGUGC | -3.01 ± 0.84 | -2.37 ± 0.54 |
| CCCUAGCAAUAUUACGAUAC | – | -2.81 ± 0.63 |
| GACUAGCAAUAUUACGCUCG | -1.01 ± 0.14 | -0.0622 ± 0.19 |
| AGUUAGCAAUAUUACGGAGG | -2.91 ± 0.3 | -2.13 ± 0.41 |
| UUUGAGCAAUAUUACGAUCU | -2.42 ± 1.2 | -1.9 ± 0.54 |
| UAAGAGCAAUAUUACGGUGC | -3.43 ± 0.28 | – |
| GGCGAGCAAUAUUACGCUUG | -4.49 ± 1 | – |
| GGUUAGCAAUAUUACGAAGG | -2.66 ± 0.78 | -1.94 ± 0.55 |
| GAACAGCAAUAUUACGUCAC | -3.44 ± 0.23 | -0.689 ± 0.17 |
| GCUGAGCAAUAUUACGCCGA | -2.63 ± 0.73 | – |
| AUAGAGCAAUAUUACGGAGC | -3.73 ± 0.59 | – |
| UUUUAGCAAUAUUACGUGCU | -2.43 ± 0.47 | -0.459 ± 0.22 |
| UUUUAGCAAUAUUACGAUAC | – | -1.43 ± 0.55 |
| CUGCAGCAAUAUUACGUGCC | -2.23 ± 0.21 | -2.26 ± 0.26 |
| GCGGAGCAAUAUUACGGAAA | -2.44 ± 0.78 | -1.54 ± 0.46 |
| CUGGAGCAAUAUUACGCCAU | -2.66 ± 0.76 | – |
| CUUUAGCAAUAUUACGGAGA | – | -2.1 ± 0.53 |
| AUUUAGCAAUAUUACGAGGC | – | -1.24 ± 0.68 |
| UCCUAGCAAUAUUACGUCUA | -3.65 ± 0.61 | – |
| CAAGAGCAAUAUUACGUACC | – | -1.69 ± 1.2 |
| CUGAAGCAAUAUUACGUCCC | – | -1.37 ± 1.2 |
| AGAUAGCAAUAUUACGGAAC | -3.87 ± 0.6 | – |

| Sequence | self-splicing fitness (ln) (30 °C) | self-splicing fitness (ln) (37 °C) |
| --- | --- | --- |
| CGCGAGCAAUAUUACGCGCA | -3.97 ± 0.55 | – |
| UCCUAGCAAUAUUACGCGGC | – | -1.69 ± 0.81 |
| ACGGAGCAAUAUUACGAUGA | -2.56 ± 0.12 | -2.57 ± 0.19 |
| GAAGAGCAAUAUUACGACAA | -3.31 ± 1 | – |
| GGCAAGCAAUAUUACGCAGC | -4.22 ± 0.52 | – |
| UCUGAGCAAUAUUACGGCCA | -2.47 ± 0.78 | -2.08 ± 1.1 |
| GUUAAGCAAUAUUACGUGGU | -2.79 ± 0.15 | -2.35 ± 0.19 |
| UUUCAGCAAUAUUACGAAAC | -4.41 ± 0.59 | – |
| UUAUAGCAAUAUUACGUCAC | -2.79 ± 0.68 | -2.08 ± 1.1 |
| CAAGAGCAAUAUUACGACGC | -3.47 ± 0.6 | – |
| AUUUAGCAAUAUUACGGGAA | -2.24 ± 0.26 | -1.84 ± 0.19 |
| CGUGAGCAAUAUUACGUUAC | – | -4.13 ± 1 |
| AUCGAGCAAUAUUACGGAAA | -2.96 ± 0.54 | – |
| AUUUAGCAAUAUUACGGGCC | -3.15 ± 0.74 | -1.79 ± 0.53 |
| GUUUAGCAAUAUUACGGGCC | – | -0.681 ± 1.4 |
| CAUGAGCAAUAUUACGUACC | -2.74 ± 0.54 | -1.66 ± 0.73 |
| CUGAAGCAAUAUUACGCUAC | – | -3.64 ± 0.59 |
| UCUUAGCAAUAUUACGGACG | – | -2.69 ± 0.54 |
| CACUAGCAAUAUUACGACCC | -2.83 ± 0.62 | -2 ± 0.69 |
| ACUGAGCAAUAUUACGUCCC | – | -1.92 ± 0.52 |
| UACGAGCAAUAUUACGCGCC | – | -2.85 ± 0.53 |
| GUACAGCAAUAUUACGCAGA | -3.95 ± 0.59 | – |
| GGGGAGCAAUAUUACGUCCU | – | -1.96 ± 0.56 |
| CACGAGCAAUAUUACGAACU | -3.06 ± 0.51 | – |
| CUUAAGCAAUAUUACGGCUU | -5.16 ± 0.71 | -3.9 ± 0.72 |

| Sequence | self-splicing fitness (ln) (30 °C) | self-splicing fitness (ln) (37 °C) |
| --- | --- | --- |
| CUCCAGCAAUAUUACGAGGC | – | -4.06 ± 0.72 |
| CCUGAGCAAUAUUACGCCAA | – | -4.62 ± 0.72 |
| UUAUAGCAAUAUUACGACAC | -1.83 ± 0.57 | -0.3 ± 0.6 |
| CGAGAGCAAUAUUACGCAAG | -3.6 ± 1 | -0.209 ± 0.56 |
| CUGAAGCAAUAUUACGCACA | -2.43 ± 0.55 | -1.39 ± 0.87 |
| GAGGAGCAAUAUUACGAAAG | -3.68 ± 0.52 | -2.01 ± 0.33 |
| UGUGAGCAAUAUUACGCGAC | – | -3.48 ± 0.76 |
| CCCGAGCAAUAUUACGGCGC | -3.48 ± 0.79 | -1.68 ± 0.56 |
| GCAGAGCAAUAUUACGGACA | -4.24 ± 0.73 | – |
| UAGAAGCAAUAUUACGUACC | – | -1.9 ± 0.81 |
| CGAAAGCAAUAUUACGUUCA | -0.312 ± 0.074 | 0.0231 ± 0.091 |
| GACGAGCAAUAUUACGGAGA | -4.47 ± 1 | – |
| GGCUAGCAAUAUUACGCAGC | -3.46 ± 0.58 | – |
| UGAUAGCAAUAUUACGGUAC | -4.41 ± 0.73 | – |
| GAAGAGCAAUAUUACGCAGG | – | -2.97 ± 0.61 |
| ACUUAGCAAUAUUACGUCGC | -4.36 ± 0.59 | – |
| GUAGAGCAAUAUUACGAAGG | – | -1.66 ± 0.55 |
| CCGGAGCAAUAUUACGCGUC | -3.7 ± 0.78 | – |
| UAGGAGCAAUAUUACGCACU | -4.15 ± 0.51 | – |
| CGCCAGCAAUAUUACGAAGC | -5.4 ± 0.71 | – |
| GCAAAGCAAUAUUACGGUGG | -2.27 ± 0.12 | -2.43 ± 0.19 |
| UUUAAGCAAUAUUACGAAGG | -3.55 ± 0.52 | -2.81 ± 0.53 |
| UAAGAGCAAUAUUACGGGGG | – | -2.98 ± 0.53 |
| UCGUAGCAAUAUUACGCUCC | – | -2.39 ± 0.63 |
| CUAUAGCAAUAUUACGCACC | – | -0.675 ± 0.51 |

| Sequence | self-splicing fitness (ln) (30 °C) | self-splicing fitness (ln) (37 °C) |
| --- | --- | --- |
| GAAAAGCAAUAUUACGAGGG | -4.83 ± 0.51 | – |
| CGGGAGCAAUAUUACGCAAC | – | -2.78 ± 0.77 |
| GCGGAGCAAUAUUACGAAUC | – | -1.52 ± 0.71 |
| AGAGAGCAAUAUUACGGCGG | – | -1.87 ± 0.52 |
| GGUCAGCAAUAUUACGGACA | -0.754 ± 0.19 | -0.179 ± 0.17 |
| AAAUAGCAAUAUUACGAUGU | -1.21 ± 0.078 | -0.875 ± 0.089 |
| GUUGAGCAAUAUUACGCCAU | -2.84 ± 0.53 | – |
| UCUGAGCAAUAUUACGCACG | – | -3.51 ± 0.52 |
| AUUAAGCAAUAUUACGCUCA | -0.292 ± 0.068 | -0.258 ± 0.091 |
| CUAAAGCAAUAUUACGUCAU | -4.85 ± 0.31 | -2.78 ± 0.23 |
| ACGGAGCAAUAUUACGCGCC | -1.55 ± 0.87 | 0.406 ± 1.2 |
| CGCGAGCAAUAUUACGGACC | -4.82 ± 1 | – |
| CCUUAGCAAUAUUACGAGAC | -5.39 ± 0.58 | – |
| CACGAGCAAUAUUACGGCCG | -0.354 ± 0.094 | -0.105 ± 0.13 |
| UCAGAGCAAUAUUACGUCGU | -2.89 ± 0.24 | -0.54 ± 0.24 |
| ACAAAGCAAUAUUACGUUGA | -1.49 ± 0.079 | -1.24 ± 0.089 |
| CCGAAGCAAUAUUACGUCCA | -2.06 ± 0.51 | -2.68 ± 0.62 |
| UGAUAGCAAUAUUACGCUAC | -2.94 ± 1.1 | – |
| CCAUAGCAAUAUUACGAACU | – | -1.43 ± 0.57 |
| GGGGAGCAAUAUUACGGUAG | – | -1.83 ± 0.53 |
| ACUGAGCAAUAUUACGCAGC | -3.43 ± 0.73 | – |
| AAGGAGCAAUAUUACGACCA | -4.78 ± 1 | – |
| CAGAAGCAAUAUUACGCCCU | -2.25 ± 0.74 | – |
| UACGAGCAAUAUUACGCCGA | -2.26 ± 0.56 | -1.56 ± 0.58 |
| CCUGAGCAAUAUUACGGCUA | -1.85 ± 0.33 | -1.27 ± 0.55 |

| Sequence | self-splicing fitness (ln) (30 °C) | self-splicing fitness (ln) (37 °C) |
| --- | --- | --- |
| GAUGAGCAAUAUUACGAUCU | -2.62 ± 0.76 | – |
| GCGAAGCAAUAUUACGCCGA | -3.21 ± 1.1 | – |
| UAACAGCAAUAUUACGGAGC | -4.21 ± 0.59 | – |
| CCGGAGCAAUAUUACGUAAA | -3.29 ± 0.25 | -2.09 ± 0.47 |
| CUACAGCAAUAUUACGGAUU | -3.46 ± 0.14 | -2.5 ± 0.21 |
| UAGCAGCAAUAUUACGAGCG | 0.035 ± 0.078 | 0.235 ± 0.098 |
| CUCGAGCAAUAUUACGGCCG | -2.73 ± 0.55 | – |
| CUCGAGCAAUAUUACGCCGU | -2.76 ± 0.63 | – |
| GGUCAGCAAUAUUACGCGAU | – | -3.45 ± 0.52 |
| GGUCAGCAAUAUUACGCUGG | – | -1.33 ± 1.2 |
| CGGAAGCAAUAUUACGCAUA | -2.9 ± 0.61 | – |
| GGAUAGCAAUAUUACGACGG | -4.21 ± 0.52 | – |
| AGUGAGCAAUAUUACGUAUG | -4.46 ± 0.59 | – |
| UGGUAGCAAUAUUACGGACU | -0.67 ± 0.17 | 0.844 ± 0.2 |
| CCAGAGCAAUAUUACGUAGG | -3.25 ± 0.19 | -2.6 ± 0.25 |
| GUUGAGCAAUAUUACGACCG | -4.36 ± 1 | – |
| AAAUAGCAAUAUUACGAGCC | – | -0.773 ± 0.59 |
| CCCAAGCAAUAUUACGCCCU | – | -4.22 ± 0.59 |
| GUAGAGCAAUAUUACGGGCC | -4.21 ± 0.73 | -0.695 ± 0.52 |
| CUAAAGCAAUAUUACGGCCA | -3.21 ± 0.31 | -2.08 ± 0.4 |
| AGCGAGCAAUAUUACGCGGU | -4.94 ± 0.58 | – |

Five entries from above, reformatted.
Sequence,self-splicing fitness (ln) (30 °C),self-splicing fitness (ln) (37 °C)
CUGCAGCAAUAUUACGUGCC,-2.23 ± 0.21,-2.26 ± 0.26
GCGGAGCAAUAUUACGGAAA,-2.44 ± 0.78,-1.54 ± 0.46
GUUUAGCAAUAUUACGGGCC,–,-0.681 ± 1.4
CACGAGCAAUAUUACGGCCG,-0.354 ± 0.094,-0.105 ± 0.13
GGAUAGCAAUAUUACGACGG,-4.21 ± 0.52,–
